The series is described as follows: general procedure: Fmoc solid-phase peptide synthesis; Tentagel S RAM (0.24 mmol/g); Rink Amide AM LL (0.26 mmol/g); Fmoc-Xaa-Wang LL preloaded resins (0.32 mmol/g); OxymaPure/DIC. To be noted: for isolated yield / isolated mass: whole synthesis; for isolated yield: scale of the general procedure 300 mg of resin (manual).

With (AKA)4(KKEY)2KE-OH, the isolated yield (trifluoroacetate salt) turned out to be 17.6%. On to (ka)8(kak)4(keka)2 kakeayca‐NH2, for which the isolated yield (trifluoroacetate salt) was found to be 18.3%. Regarding (AcKA)8(KKKAK)4(KEKA)2 KAKEAYCA‐NH2, for the setting “trifluoroacetate salt”, the isolated yield stood at 9.4%. Same read-out and setting: the figure for (KA)8(KKAKE)4(KYKAKA)2KAYKKA-OH is 9.0%; for (AYK)4(KE)2KKAA-OH it is 28.4%.

Consider (AcAKA)4(KEY)2KYKK-NH2, for which the isolated yield by setting is: (trifluoroacetate salt, run 1) 49%; (trifluoroacetate salt, run 2) 49.3%. In the case of (ka)8(kkake)4(kykaka)2 kaykka‐OH, where the note is “trifluoroacetate salt”, the isolated yield came to 16.7%. In the case of (KA)8(KKKAK)4(KEKA)2 KAKEAYCA‐NH2, the isolated yield (trifluoroacetate salt) was determined as 8.6%. As for (AcKAE)4(KAEK)2KYYA-OH, the isolated yield (trifluoroacetate salt) was found to be 34.1%. Also, the isolated mass (trifluoroacetate salt, run 1) amounted to 4.1 mg.

Consider (ClAcAKA)4(KEK)2KYEY-OH, for which the isolated yield reads like this: (trifluoroacetate salt, run 1) 8%; (trifluoroacetate salt, run 2) 8.2%.

(AK)8(KAK)4(KEKA)2 KAKEAYCA‐NH2: the isolated yield (trifluoroacetate salt) came to 23.2%. With (ClAcKYA)4(KEA)2KKKA-OH, the isolated yield by setting is: (trifluoroacetate salt, run 1) 31%; (trifluoroacetate salt, run 2) 30.5%. On to (AcKA)4(KEYA)2KKAK-OH, for which the isolated yield was found to be 10% (trifluoroacetate salt, run 1) and 9.7% (trifluoroacetate salt, run 2).

Turning to (KA)4(KEYA)2KKAK-OH, where the note is “trifluoroacetate salt, run 1”, the isolated yield came to 20% and the isolated mass worked out at 25.8 mg. In addition, the isolated yield (trifluoroacetate salt, run 2) was found to be 20.3%. With (ClAcK)4(KAYE)2KAKYAEA-NH2), where the note is “trifluoroacetate salt”, the isolated yield is reported as 46.1%. Take (AKA)8(KYEK)4(KEKA)2KAKY-OH: the isolated yield was 9% (trifluoroacetate salt, anie202113562-tbl-0001 r7) and 9.4% (trifluoroacetate salt, run 1).

Regarding (ClAcKA)4(KEYA)2KKAK-OH, the isolated yield (trifluoroacetate salt) is 8%. The same measure, in the same setting: the figure for (ClAcKAE)4(KAEK)2KYYA-OH is 33.8%. In the case of (KA)4(KAYE)2KK-OH, the isolated yield was determined as 35% (trifluoroacetate salt, run 1) and 34.8% (trifluoroacetate salt, run 2). On to (AcAKA)4(KKEY)2KE-OH, for which the isolated yield (trifluoroacetate salt) is reported as 31.1%. With (AcAKA)4(KEK)2KYEY-OH, where the note is “trifluoroacetate salt”, the isolated yield was found to be 21%. Same read-out and setting: the figure for (KK)8(KAK)4(KEKA)2 KAKEAYCA‐NH2 is 18.9%; for (FumKA)8(KKAKE)4(KYKAKA)2KAYKKA-OH it is 18.1%.

With (AK)8(KAKAKY)4(KAKEYEY)2KAKEYEY-NH2, the isolated yield (trifluoroacetate salt) was determined as 5.8%. As for (AcKAA)4(KYYE)2KAY-NH2, the isolated yield runs as follows: (trifluoroacetate salt, run 1) 30%; (trifluoroacetate salt, run 2) 29.5%. On the same counts, the results for (ClAcAKE)4(KKAY)2KYKY-NH2 are 7% and 6.7%. On the same counts, the results for (AKA)4(KEK)2KYEY-OH are 26% and 26.4%. For (ClAcK)4(KEAKAKEY)2KAKEYEY-OH, the isolated yield (trifluoroacetate salt) was 22.8%.

Turning to (KAK)4(KEKA)2 KAKEAYCA‐NH2, the isolated yield (trifluoroacetate salt) is reported as 14.1%. (FumAKE)4(KAYA)2KKKK-NH2: the isolated yield (trifluoroacetate salt, run 1) was determined as 11% and the isolated yield (trifluoroacetate salt, run 2) was found to be 23.6%.

On to (KAE)4(KAEK)2KYYA-OH, for which the isolated yield (trifluoroacetate salt) is 30.0%. On to (AcAKA)8(KYEK)4(KEKA)2KAKY-OH, for which the isolated yield was determined as 9% (trifluoroacetate salt, run 1) and 8.7% (trifluoroacetate salt, run 2). On the same counts, the results for (AK)4(KKYE)2KAAA-OH are 10% and 9.6%. In the case of (KA)8(KAK)4(KEKA)2KAKEAYCA-NH2, the isolated yield (TFA salt) was 7.7%. Turning to (FumKA)8(KKKAK)4(KEKA)2 KAKEAYCA‐NH2, the isolated yield (trifluoroacetate salt) came out at 8.3%.

On to (KAA)4(KEKA)2KEKA-NH2, for which, under “trifluoroacetate salt”, the isolated yield was 49.3%. For the substance (KYA)4(KEA)2KKKA-OH, the isolated yield by setting is: (trifluoroacetate salt, run 1) 39%; (trifluoroacetate salt, run 2) 39.2%. Consider (AcAKE)4(KAYA)2KKKK-NH2, for which the isolated yield reads like this: (trifluoroacetate salt, run 1) 13%; (trifluoroacetate salt, run 2) 12.5%.

As for (AcKA)4(KAYE)2KK-OH, for the setting “trifluoroacetate salt, run 1”, the isolated yield is listed as 18% and the isolated mass is given as 23.6 mg. Besides, the isolated yield (trifluoroacetate salt, run 2) was 17.6%. On to (AcKYA)4(KEA)2KKKA-OH, for which the isolated yield reads like this: (trifluoroacetate salt, run 1) 43%; (trifluoroacetate salt, run 2) 42.7%. Regarding (AKE)4(KAYA)2KKKK-NH2, the isolated yield is 11% (trifluoroacetate salt, run 1) and 11.4% (trifluoroacetate salt, run 2). With (AcKA)8(KKAKE)4(KYKAKA)2KAYKKA-OH, the isolated yield (trifluoroacetate salt) is reported as 19.9%.

As for (KYA)4(KAE)2KAEYKCA-NH2, the isolated yield (trifluoroacetate salt) was determined as 29.5%. Moreover, the isolated mass (trifluoroacetate salt, run 1) is reported as 127.7 mg. In the case of (AcKA)8(KAK)4(KEKA)2KAKEAYCA-NH2, the isolated yield (trifluoroacetate salt) is 22.8%. For (AcAKE)4(KKAY)2KYKY-NH2, the isolated yield (trifluoroacetate salt) was 27.9%. On to (FumKA)8(KAK)4(KEKA)2KAKEAYCA-NH2, for which the isolated yield (trifluoroacetate salt) was found to be 22.9%. (ClAcAKA)8(KYEK)4(KEKA)2KAKY-OH: the isolated yield is, setting by setting: (trifluoroacetate salt, run 1) 9%; (trifluoroacetate salt, run 2) 8.6%. On the same counts, the results for (AcAK)4(KKYE)2KAAA-OH are 9% and 8.9%.

For the substance (KA)8(KAK)4(KEKA)2 KAKEAYCA‐NH2, for the setting “trifluoroacetate salt”, the isolated yield is on record as 7.6%. On the same count and under the same terms, the same measure for (AcAYK)4(KE)2KKAA-OH: 28.4%. The same measure, in the same setting: the same measure for (FumAKA)4(KEY)2KYKK-NH2: 23.6%. For the substance (AcKAK)4(KAEY)2KAEA-OH, the isolated yield reads like this: (trifluoroacetate salt, run 1) 2%; (trifluoroacetate salt, run 2) 2.3%. With (AKK)4(KYEK)2KKEA-NH2, the isolated yield (trifluoroacetate salt) amounted to 49.3%.

In the case of (KA)8(KKAKE)4(KYKAKA)2 KAYKKA‐OH, the isolated yield (trifluoroacetate salt) was determined as 15.6%. Consider (KA)8(KAK)4(KEKA)2 KAKEAYC(Fl)A‐NH2, for which the conjugation yield (conjugation step, trifluoroacetate salt) is given as 40.6%. Regarding (K)4(KAYAEY)2KAKAEYA-NH2, the isolated yield (trifluoroacetate salt) was found to be 43.5%. With (AKE)4(KKAY)2KYKY-NH2, the isolated yield (trifluoroacetate salt) was 18.6%. (KAEKAYA)4(KEKYAKA)2KEKYKA-NH2: the isolated yield (trifluoroacetate salt) was determined as 25.6%. In addition, where the note is “trifluoroacetate salt, run 1”, the isolated mass worked out at 211.0 mg. As for (KAA)4(KEY)2KAKEYEYA-NH2, the isolated yield (trifluoroacetate salt) was 41.1%.
